Source: PubChem BioAssay AID1224831 (NIAID, 2016)
Assay: 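Confirming genome-wide hits on LPS-triggered TNF-alpha induction with independent siRNA sequences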 (follow-up of hits). System: human THP-1 B5 monocytic leukaemia cells carrying a TNF promoter luciferase reporter, made macrophage-like with PMA. Reagents: single siRNA against human genes, 50 nM. Timing: about 68 h of knock-down, then 4 h LPS. Treatment: LPS (Salmonella minnesota, TLR-grade) at 10 ng/ml for 4 h; PMA 5 ng/ml present during knock-down. Measured: 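TNF promoter reporter read as dual luciferase ratio after 4 h LPS, normalised per plate to its median, given as replicate mean robust z-score per siRNA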. Direction: TNF reporter z-score: higher = stronger LPS-induced TNF reporter signal; z-score, median over gene's siRNAs: higher = stronger TNF reporter signal across the gene's siRNAs. Call rule: 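Active when the replicate mean z-score is about -1 or lower, or about 1.5 or higher; lowered and raised TNF reporter signal both count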. Calls: active = changed TNF reporter (either direction); inactive = little change.
The deposit covers about 3,500 reagents; this is a part drawn at random. In the full data, 731 (21%) are marked active. 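Active means either lowered or raised reporter signal; the gene-median score did not drive the per-siRNA calls.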 A number with no mark means an inactive call.

With FSIP2 [SID315489231], what was measured?
TNF reporter z-score, replicate mean: -1.67 (active); z-score, median over gene's siRNAs: -0.03

What did the screen give for FSIP2 [SID315489232]?
TNF reporter z-score, replicate mean: -0.04; z-score, median over gene's siRNAs: -0.03

What is on record for FSIP2 [SID315489233]?
TNF reporter z-score, replicate mean: 0.2; z-score, median over gene's siRNAs: -0.03

How did the screen score FSIP2 [SID315489234]?
TNF reporter z-score, replicate mean: -0.02; z-score, median over gene's siRNAs: -0.03

How did the screen score FSIP2 [SID315489235]?
TNF reporter z-score, replicate mean: -0.39; z-score, median over gene's siRNAs: -0.03

How did the screen score FSIP2 [SID315489236]?
TNF reporter z-score, replicate mean: 0.53; z-score, median over gene's siRNAs: -0.03

What is on record for SKIC8 [SID315487041]?
TNF reporter z-score, replicate mean: 0.15; z-score, median over gene's siRNAs: 0.26

Which result is listed for SKIC8 [SID315487042]?
TNF reporter z-score, replicate mean: -0.82; z-score, median over gene's siRNAs: 0.26

What did the screen give for SKIC8 [SID315487043]?
TNF reporter z-score, replicate mean: 0.71; z-score, median over gene's siRNAs: 0.26

With SKIC8 [SID315487044], how do the results read?
TNF reporter z-score, replicate mean: 0.37; z-score, median over gene's siRNAs: 0.26

For SKIC8 [SID315487045], what was measured?
TNF reporter z-score, replicate mean: 0.96; z-score, median over gene's siRNAs: 0.26

Which result is listed for SKIC8 [SID315487046]?
TNF reporter z-score, replicate mean: -0.46; z-score, median over gene's siRNAs: 0.26

What is on record for C9orf163 [SID315487908]?
TNF reporter z-score, replicate mean: 0.33; z-score, median over gene's siRNAs: 0.015

With C9orf163 [SID315487909], what does the deposit list?
TNF reporter z-score, replicate mean: -0.31; z-score, median over gene's siRNAs: 0.015

With C9orf163 [SID315487910], what does the deposit list?
TNF reporter z-score, replicate mean: 0.03; z-score, median over gene's siRNAs: 0.015

How did the screen score C9orf163 [SID315487911]?
TNF reporter z-score, replicate mean: 0.06; z-score, median over gene's siRNAs: 0.015

For C9orf163 [SID315487912], how do the results read?
TNF reporter z-score, replicate mean: -0.46; z-score, median over gene's siRNAs: 0.015

What is on record for C9orf163 [SID315487913]?
TNF reporter z-score, replicate mean: 0; z-score, median over gene's siRNAs: 0.015

Just “z-score, median over gene's siRNAs” (3 entries from above):
FSIP2 [SID315489233]: -0.03
FSIP2 [SID315489234]: -0.03
FSIP2 [SID315489235]: -0.03
